Experimental data from patent US5534409, “Cytokine regulated transcription factor” (Ciba-Geigy Corporation).
Construct, isoform or probe ends are uncertain for at least one entry. Where cells or extracts were used, other partners may take part. Tags and fusion partners may be left off the protein sequences shown.

Biological target: T1, MGF (recombinant, clone 10) from COS cells (Ovis aries) (UniProt P42231)
T1 sequence (limits assumed): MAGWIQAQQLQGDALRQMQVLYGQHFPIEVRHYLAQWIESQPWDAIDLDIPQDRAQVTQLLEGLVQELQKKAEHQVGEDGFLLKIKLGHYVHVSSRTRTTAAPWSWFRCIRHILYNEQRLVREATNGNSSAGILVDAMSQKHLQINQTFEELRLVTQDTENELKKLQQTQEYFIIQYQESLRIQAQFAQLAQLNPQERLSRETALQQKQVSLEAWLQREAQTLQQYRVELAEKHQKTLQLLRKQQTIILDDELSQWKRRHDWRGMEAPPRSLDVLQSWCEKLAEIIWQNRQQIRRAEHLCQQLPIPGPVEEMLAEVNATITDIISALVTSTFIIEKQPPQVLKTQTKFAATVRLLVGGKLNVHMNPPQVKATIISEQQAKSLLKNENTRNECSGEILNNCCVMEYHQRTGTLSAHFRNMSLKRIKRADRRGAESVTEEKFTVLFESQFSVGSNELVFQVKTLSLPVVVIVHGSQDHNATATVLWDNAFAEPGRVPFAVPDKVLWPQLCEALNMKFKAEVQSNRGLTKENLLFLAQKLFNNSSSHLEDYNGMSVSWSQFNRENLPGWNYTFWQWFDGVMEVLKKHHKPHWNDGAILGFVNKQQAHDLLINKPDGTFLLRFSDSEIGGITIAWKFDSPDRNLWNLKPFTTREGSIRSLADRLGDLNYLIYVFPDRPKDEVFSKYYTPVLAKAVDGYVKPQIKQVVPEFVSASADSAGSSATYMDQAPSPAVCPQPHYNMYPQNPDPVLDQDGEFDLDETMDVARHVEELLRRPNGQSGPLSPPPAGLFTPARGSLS
Experiment: EMSA
Conditions: strong with long prolactin receptor plus prolactin, low without; competed by 100-fold molar excess of wild-type oligo; PTP1B prevents complex; protein in an extract

## AGATTTCTAGGAATTCAATCC (double strand) [bovine beta-casein MGF site]
  binding result: binds
